These are yes or no findings as the source states them, for the method shown. Binding seen in cells or lysates may run through a third protein. Some results given as binding are weak or reduced against the parent protein; the word gives no strength.
Experiments:
[1] = target: PALS1 (human (endogenous in WT-HPDE)) (UniProt Q8N3R9); assay: co-IP; endogenous proteins; lysates of Ctrl and shNLGN2 (NLGN2-silenced) WT-HPDE cells at mature confluence, homogenized in cold EB buffer (QIAGEN) and clarified; extracts incubated overnight with Dynabeads preincubated with a primary antibody (1 µg per mg of protein); western blot
[2] = target: PATJ (human (endogenous in WT-HPDE)) (UniProt Q8NI35); assay: as above

Chains of the proteins cited; added tags and fusions are not shown. Residues count along the entry.
UniProt Q8NFZ4, residues 15-835: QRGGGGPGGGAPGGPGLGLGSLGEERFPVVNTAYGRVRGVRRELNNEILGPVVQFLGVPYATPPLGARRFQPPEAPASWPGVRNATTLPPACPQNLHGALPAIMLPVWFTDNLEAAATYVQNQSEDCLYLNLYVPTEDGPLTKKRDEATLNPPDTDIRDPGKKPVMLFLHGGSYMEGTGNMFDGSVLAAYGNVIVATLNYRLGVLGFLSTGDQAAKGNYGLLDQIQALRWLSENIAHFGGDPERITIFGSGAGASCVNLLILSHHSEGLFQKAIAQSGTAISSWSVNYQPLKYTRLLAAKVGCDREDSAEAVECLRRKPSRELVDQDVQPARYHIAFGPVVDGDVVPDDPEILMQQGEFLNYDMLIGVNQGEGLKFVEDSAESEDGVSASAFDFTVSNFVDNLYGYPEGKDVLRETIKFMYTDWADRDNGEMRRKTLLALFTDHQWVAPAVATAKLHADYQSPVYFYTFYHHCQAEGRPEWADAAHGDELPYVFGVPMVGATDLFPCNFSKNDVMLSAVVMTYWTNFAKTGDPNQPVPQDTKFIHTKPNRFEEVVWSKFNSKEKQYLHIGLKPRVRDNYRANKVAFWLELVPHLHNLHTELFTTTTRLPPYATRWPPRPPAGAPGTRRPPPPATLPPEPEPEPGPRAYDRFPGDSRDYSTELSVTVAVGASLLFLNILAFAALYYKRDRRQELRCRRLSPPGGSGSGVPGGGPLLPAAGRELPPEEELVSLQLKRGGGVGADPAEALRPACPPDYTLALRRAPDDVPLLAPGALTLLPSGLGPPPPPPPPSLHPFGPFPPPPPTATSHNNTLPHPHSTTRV

| Substance | binding [1] | binding [2] |
| --- | --- | --- |
| AMOT (from UniProt Q4VCS5 1-1084) | binds | binds |
| YAP (from UniProt P46937 1-504) | binds | binds |
| neuroligin-2 (from UniProt Q8NFZ4 15-835) | – | binds |

Source: paper PMC11014856
